Data taken from US20060088897A1, “Modulators” (priority 2003, published 2006).
These are yes or no findings as the source states them, for the method shown. Some binding calls cover weakened binding; strength is not graded here.

The chains behind the UniProt entries cited, without tags or fusion partners. Where a name states a change or a piece, a line headed by the entry shows the natural chain unless it says otherwise.
UniProt Q13153: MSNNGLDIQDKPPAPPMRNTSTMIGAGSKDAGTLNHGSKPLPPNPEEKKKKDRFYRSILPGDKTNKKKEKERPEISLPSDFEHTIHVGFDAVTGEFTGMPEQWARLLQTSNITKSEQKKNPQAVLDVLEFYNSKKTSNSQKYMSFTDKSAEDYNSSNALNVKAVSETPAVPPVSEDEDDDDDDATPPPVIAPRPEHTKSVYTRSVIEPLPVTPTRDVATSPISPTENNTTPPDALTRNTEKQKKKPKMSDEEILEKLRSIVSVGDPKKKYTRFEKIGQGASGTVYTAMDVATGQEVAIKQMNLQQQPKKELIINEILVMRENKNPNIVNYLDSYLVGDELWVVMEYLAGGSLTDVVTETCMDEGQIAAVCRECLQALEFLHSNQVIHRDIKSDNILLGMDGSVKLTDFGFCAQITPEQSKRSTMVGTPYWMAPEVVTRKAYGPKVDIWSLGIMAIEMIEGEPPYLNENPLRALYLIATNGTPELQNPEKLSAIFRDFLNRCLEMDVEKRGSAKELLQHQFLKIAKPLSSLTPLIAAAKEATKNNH
UniProt O75914: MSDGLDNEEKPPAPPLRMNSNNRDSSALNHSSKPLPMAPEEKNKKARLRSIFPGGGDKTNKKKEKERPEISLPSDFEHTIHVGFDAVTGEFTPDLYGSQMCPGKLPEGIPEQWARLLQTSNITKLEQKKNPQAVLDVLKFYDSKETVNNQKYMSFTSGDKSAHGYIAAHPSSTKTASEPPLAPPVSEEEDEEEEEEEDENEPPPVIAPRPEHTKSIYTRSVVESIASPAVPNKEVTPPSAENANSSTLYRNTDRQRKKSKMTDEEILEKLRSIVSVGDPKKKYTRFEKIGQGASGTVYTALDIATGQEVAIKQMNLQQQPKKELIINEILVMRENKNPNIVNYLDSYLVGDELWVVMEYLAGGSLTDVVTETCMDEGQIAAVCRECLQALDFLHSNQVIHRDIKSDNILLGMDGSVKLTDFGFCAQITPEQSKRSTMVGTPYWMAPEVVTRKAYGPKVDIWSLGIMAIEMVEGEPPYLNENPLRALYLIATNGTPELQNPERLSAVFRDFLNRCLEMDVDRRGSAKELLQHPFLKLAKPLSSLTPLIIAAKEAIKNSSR
UniProt Q13177: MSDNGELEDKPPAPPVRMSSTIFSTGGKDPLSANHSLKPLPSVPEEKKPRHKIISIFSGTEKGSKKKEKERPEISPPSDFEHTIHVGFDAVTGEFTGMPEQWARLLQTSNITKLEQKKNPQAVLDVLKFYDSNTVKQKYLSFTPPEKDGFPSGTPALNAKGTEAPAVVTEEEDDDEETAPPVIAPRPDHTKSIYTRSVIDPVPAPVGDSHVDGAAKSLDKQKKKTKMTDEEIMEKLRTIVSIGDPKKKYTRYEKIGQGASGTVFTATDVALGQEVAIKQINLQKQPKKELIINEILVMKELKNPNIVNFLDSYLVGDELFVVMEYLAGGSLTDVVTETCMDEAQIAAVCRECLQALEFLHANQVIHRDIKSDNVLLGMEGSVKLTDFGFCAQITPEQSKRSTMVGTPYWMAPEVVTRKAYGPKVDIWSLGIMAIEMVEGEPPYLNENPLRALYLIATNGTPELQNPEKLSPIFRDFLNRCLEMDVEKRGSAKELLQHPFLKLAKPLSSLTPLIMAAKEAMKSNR
UniProt P60953: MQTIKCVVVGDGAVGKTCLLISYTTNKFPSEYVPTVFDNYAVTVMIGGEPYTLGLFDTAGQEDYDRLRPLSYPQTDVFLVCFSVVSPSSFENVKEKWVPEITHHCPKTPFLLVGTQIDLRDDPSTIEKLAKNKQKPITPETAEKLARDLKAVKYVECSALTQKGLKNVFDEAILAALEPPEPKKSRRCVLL

Legend:
[1] = molecular target: αPAK purified from neutrophil cytosol (64/68 kDa bands) (Homo sapiens (Human)) (UniProt Q13153); assay: far-Western overlay, [γ32P]GTP-labelled probe on nitrocellulose filter
[2] = molecular target: βPAK purified from neutrophil cytosol (65 kDa band) (Homo sapiens (Human)) (UniProt O75914); assay: as above
[3] = molecular target: γPAK purified from neutrophil cytosol (62 kDa band) (Homo sapiens (Human)) (UniProt Q13177); assay: as above
[4] = molecular target: γPAK purified from neutrophil cytosol (62 kDa band) (Homo sapiens (Human)) (UniProt Q13177); assay: far-Western overlay and Cdc42Hs-GST affinity chromatography; band identified by peptide sequencing

Measured: binding

Cdc42Hs [γ32P]GTP-labelled probe (from UniProt P60953 1-191)
binds: all assays above
